Two sequences from paper PMC12528649 can be followed below.

The test system of data set [1] is GST-MaASR3 (Musa acuminata (AAA group)). The data set is described as follows: EMSA. Conditions: unlabeled same-sequence probe reduced the shift; Thermo EMSA kit with biotin-labelled probe in binding buffer, acrylamide gel; buffer composition, pH and temperature not stated (refers to Wei et al.); recombinant protein; protein details: N-terminal GST (pGEX). (In EMSA bound probe runs differently from free probe, usually more slowly.)

Another data set deals with GST. The data set is described as follows: EMSA. To be noted: GST alone; Thermo EMSA kit with biotin-labelled probe in binding buffer, acrylamide gel; buffer composition, pH and temperature not stated (refers to Wei et al.); recombinant protein; protein details: GST only.
Data set [2] concerns GST-MaASR3 (Musa acuminata (AAA group)). The data set is described as follows: competition with a labelled probe. To be noted: mutated competitor vs biotin-labelled N1, did not reduce the shift; Thermo EMSA kit with biotin-labelled probe in binding buffer, acrylamide gel; buffer composition, pH and temperature not stated (refers to Wei et al.); recombinant protein; protein details: N-terminal GST (pGEX).

Construct, isoform or probe ends are uncertain for at least one entry. For part of these data: No signal at the amounts used counts as a negative.

On to “AACGAAAGAGACTAAGAGCCCATTCCATCAACGGCGCGC (double strand) [MaNIP1 promoter probe]”, for which the binding result in data set [1] is reported as “binds”; in the data set on GST, “no binding”.

In the case of “AACGAAAGAGACTAAGCTTTTCCTCCATCAACGGCGCGC (double strand) [MaNIP1 promoter mutant probe (competitor)]”, in data set [2], the binding result is “no binding”.
